{"source": "patent US4902678A", "about": "“Anti-viral compositions” (priority 1988, dated 1990)", "origin": "cited, not measured here", "key": {"[1]": {"test_system": "HSV mutants lacking the ability to induce DP (DP-mutants)", "conditions": "cited from earlier work"}, "human herpesviruses": {"test_system": "human herpesviruses", "conditions": "cited from earlier work"}}, "note": "Entries after “also recorded” stand apart in the source; their conditions may differ. At least one structure is not confirmed: it was looked up by name or label, or the drawing left a doubt.", "data": [{"compound": "O=c1[nH]c(=O)n([C@H]2C[C@H](O)[C@@H](CO)O2)cc1/C=C/Br", "note": "[BVDU, bromovinyl deoxyuridine]", "values": [{"measurement": "Resistance of DP-mutants of HSV to drug", "setting": "[1]", "result": "highly resistant"}, {"measurement": "Activity against herpesviruses in prior art", "setting": "human herpesviruses", "result": "some demonstrated activity against human herpesviruses; also recorded: active primarily against HSV-1 and not HSV-2"}]}]}
